“And” between values parts separate entries of the source, which are not always exact repeats. Identical values can stand only once. Out of some 410,000 compounds screened, about 18,000 (4.4%) were called active. Inconclusive results, whose numbers are uncertain, are shown with a selection of clear calls. No stated cut-off is given here; in the data, active means activity change below about -60%; inconclusive means no clear call, values can overlap the other calls; inactive means above about -39%.
assay: qHTS Assay for inhibitors of the human cytomegalovirus (HCMV); conditions: HFF cells, HCMV-luciferase reporter, 72 h; at 57.5 µM; stronger effect = lower value
Procedure, shortened: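 Two-dose cell screen: HFF monolayers treated with compounds and infected with luciferase-expressing HCMV at 1 PFU/cell, 72 h at 37C, then lysed for luciferase measurement.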
On the % scale 0 is the no-effect control and ±100 the full control effect.

Row | Structure (SMILES) | activity change, negative = inhibition
1 | Cc1ccccc1Cn1c(=O)n(CCC(=O)NCc2ccc3c(c2)OCO3)c(=O)c2ccccc21 | inconclusive: -41.5%
2 | COc1ccc(NC(=O)CCc2ccccc2)cc1S(=O)(=O)N1CCOCC1 | inconclusive: 0%
3 | COc1ccc(-c2cccc(C(=O)Nc3ccccc3C)c2)cc1 | inconclusive: -55.2%
4 | O=C(C1=C[C@H](c2ccccc2)C[C@H](OCc2ccc(CO)cc2)O1)N1CCN(Cc2ccccc2)CC1 | inconclusive: -46%
5 | COc1ccc(CCN2C(=O)NC(NC(=O)C(C)(C)C)(C(F)(F)F)C2=O)cc1OC (stereo unspecified) | inconclusive: -45.5%
6 | COc1ccc(/C=N/NC(N)=S)cc1 | inactive: 12.7%
7 | Nc1ccccc1C(=O)NNC1=C(C(=O)C(F)(F)F)CCC1 | active: -85%
8 | CCOc1ccc(S(=O)(=O)Nc2nc3ccccc3nc2-n2ccc(=NC(=O)c3ccccc3C)cc2)cc1 | inconclusive: -58.4%
9 | COCCNc1cc(C)nc2c(-c3ccccc3OC)c(C)nn12 | inconclusive: -40.5%
10 | COc1ccc(N2CCN(C(=O)COC(=O)Cc3c(F)cccc3Cl)CC2)cc1 | inconclusive: -43.7%
11 | C[C@H]1CCC/C=C/[C@@H]2C[C@H](O)C[C@H]2[C@H](O)/C=C/C(=O)O1 | active: -99.4% and active: -97.9%
12 | CCc1nc2cccnc2n1-c1ccc(CC(=O)NC(C)CC)cc1 (stereo unspecified) | inconclusive: -40.4%
13 | Cc1cccc2c(=O)cc(CSc3ccccc3NC(=O)c3cccc(Br)c3)[nH]c12 | inactive: 31.2%
14 | COc1ccccc1CCn1cnc(Cc2ccccc2)c1C(C)C | inconclusive: -45.3%
15 | CCCCCCCCN1C(=O)[C@H](CC(=O)NCCc2ccccc2OC)C[C@@]2(C(=O)OCC)CCC=C12 | inactive: 1.85%
16 | O=C(OCC(=O)c1c[nH]c2ccccc12)c1cccc([N+](=O)[O-])c1 | inactive: -5.65%
17 | CC(C)C[C@H](NC(=O)c1[nH]cnc1C(=O)N[C@@H](C)C(=O)OC(C)(C)C)C(=O)OC(C)(C)C | inconclusive: -49.3%
18 | O=C(Nc1cnn(Cc2ccccc2)c1)c1cc2nc(-c3ccco3)cc(C(F)(F)F)n2n1 | inactive: 21.3%
19 | COc1cccc(CN(C)CC(=O)N2CCN(S(=O)(=O)c3ccccc3)CC2)c1 | inconclusive: -41.7%
20 | CN(C)c1cccc(C(=O)OC(C(=O)Nc2ccc([N+](=O)[O-])cc2Br)c2ccccc2)c1 (stereo unspecified) | inconclusive: -42.7%
21 | Cc1cc(C)nc(N/N=C2/CCSc3ccc(F)cc32)n1 | inactive: -10.3%
22 | Cc1ccsc1C(=O)Nc1cc(C(C)(C)C)nn1-c1ccccc1 | active: -110%

Row | Structure (SMILES) | activity change, negative = inhibition
23 | Clc1ccc2c(NCc3cccs3)ncnc2c1 | inconclusive: -54.4%
24 | CCOC(=O)C1CCCN(C(=S)Nc2ccc(S(=O)(=O)N3CCOCC3)cc2)C1 (stereo unspecified) | inconclusive: -41.3%
25 | Cc1ccc(Cl)cc1NC(=O)CON=C(N)c1ccccc1 | inactive: -18.9%
26 | CSCCC(N=C1NS(=O)(=O)c2ccccc21)C(=O)NCCc1ccccc1 (stereo unspecified) | inconclusive: -53.4%
27 | O=C(Nc1ccc(Cl)c(Cl)c1)c1cccc(S(=O)(=O)NCc2cccnc2)c1 | active: -94.8%
28 | O=C(c1cnn2c(C(F)(F)F)cc(-c3ccccc3)nc12)N1CCCCC1c1cccnc1 (stereo unspecified) | inconclusive: -44.6%
29 | O=C1N[C@H]2CC=C[C@H]2N(Cc2cccs2)c2ccccc21 | inconclusive: -49.3%
30 | CCCn1nnc(NC(=S)NC(=O)c2ccccc2OC)n1 | inactive: 32.2%
31 | O=C(NCc1ccco1)Nc1cccc([N+](=O)[O-])c1 | inconclusive: -44.4%
32 | Cc1ccc(-c2cc(C(=O)OCC(=O)N(C)C3CCS(=O)(=O)C3)c3ccccc3n2)c(C)c1 (stereo unspecified) | inactive: 23.8%
33 | c1cncc(-c2cn(C[C@H]3CC[C@@H]([C@@H]4CC[C@H](Cn5cc(-c6cccnc6)nn5)O4)O3)nn2)c1 | inconclusive: -48.4%
34 | Cc1ccsc1C(=O)N1CCCC(N2CCN(c3cccc(Cl)c3)CC2)C1 (stereo unspecified) | active: -63.5%
35 | Cc1cc(N)ccc1NC(=O)CN1CCCC1 | inactive: -14.6%
36 | O=C(Nc1ccc(Oc2ccc(NC(=O)c3ccco3)c(NC(=O)c3ccco3)c2)cc1)c1ccco1 | inconclusive: -48.6%
37 | COc1cccc(NC(=O)C2(C)CCN2C(C)C)c1OC (stereo unspecified) | inactive: -6.14%
38 | O=C(NCCC1=CCCCC1)C1CCN(C(=O)c2ccc(Br)cc2)CC1 | inconclusive: -44.2%
39 | COc1ccc(C(=O)c2ccccc2)c(OCC(=O)NC2CC2)c1 | inconclusive: -45.4%
40 | Cn1c(N)c(C(=O)c2cc(-c3ccncc3)nc3ccccc23)c(=O)n(C)c1=O | inactive: 63.6%
41 | CCOC(=O)C1CCN(C(=O)C2COc3ccccc3O2)CC1 (stereo unspecified) | inactive: -9.42%
42 | Cn1c(-c2cc3ccc(OC(=O)C(C)(C)C)cc3oc2=O)nc2ccccc21 | inactive: 101%
43 | Cc1oc2cc(O)ccc2c(=O)c1-c1cnn(-c2ccccc2)c1 | inactive: 16.6%
44 | Cn1c(C=O)c(-c2ccc3c(c2)OCCO3)c2ccccc21 | inconclusive: -48.2%

Row | Structure (SMILES) | activity change, negative = inhibition
45 | CN(C)CCNC(=O)c1cccc(-c2cnc3c(NC=O)cc(-c4ccc(F)cc4)cn23)c1 | inconclusive: -54.5%
46 | COc1cc(C)c(NC(=O)C(=S)NCCc2ccccc2)cc1C | inconclusive: -43.3%
47 | CC[C@H](C)[C@H](NC(N)=O)C(=O)Nc1ccc(C)cc1 | inconclusive: -59.1%
48 | CCCCn1c(Cn2nc(C(=O)O)c3ccccc3c2=O)nc2cc(S(N)(=O)=O)ccc21 | inactive: 10.5%
49 | COCCNC(=O)Cn1cnc2c(cnn2-c2ccc(C)cc2)c1=O | inactive: 39.4%
50 | CCNC(=O)c1ccccc1NC(=O)c1cccc(S(=O)(=O)N2CCC(C)CC2)c1 | inconclusive: -56.2%
51 | COc1ccc(C(C(=O)NC2CCCC2)N(C(=O)c2snc(-c3ccc(F)cc3)c2N)c2ccc(F)cc2)cc1 (stereo unspecified) | inconclusive: -48.1%
52 | COc1ccc(NS(=O)(=O)c2ccc(NC(=O)CCNS(=O)(=O)c3ccc(C)cc3)cc2)cc1 | inconclusive: -45.4%
53 | NC(=O)c1cnn(-c2ccc3ccccc3c2)c1N | inactive: 57.2%
54 | Cc1cc(C)cc(NC(=S)N2CCN(c3ncccn3)CC2)c1 | inconclusive: -41.5%
55 | Cc1ncc(CNC(=O)N(CCCl)N=O)c(N)n1 | inactive: 8.74%
56 | CCOc1ccc(N)c(SSc2cc(OCC)ccc2N)c1 | active: -98.2%
57 | Cc1cccn2cc(-c3cccc(S(=O)(=O)N4CCCCC4)c3)nc12 | inconclusive: -57.6%
58 | CCN(CC)CCN1C(=O)Cn2c(C)c(C)c3cccc1c32 | inconclusive: -46.2%
59 | CCOc1ccc(S(=O)(=O)N2CCN(C(=O)CCOc3ccccc3C)CC2)cc1 | inconclusive: -42%
60 | CCOC(=O)c1c(C)c2c(=O)[nH]cnc2n1-c1ccccc1 | active: -62.1%
61 | CCn1c(SCC(=O)N2CCCc3ccccc32)nc2ccccc2c1=O | inconclusive: -58.8%
62 | S=C(NCc1ccco1)Nc1ccccn1 | inconclusive: -49.9%
63 | Cc1cccc(/C=C/C(=O)c2ccc(N3CCOCC3)cc2)c1 | inactive: -28.9%
64 | COCCSc1ccccc1C(=O)Nc1ccccc1C(C)C | inconclusive: -51%
65 | OC(c1ccc(Cl)cc1)c1nnc(Nc2ccc(F)c(Cl)c2)s1 (stereo unspecified) | active: -63.3%
66 | CC1(C)C(=O)Nc2ccccc2N1C(=O)CSc1nc(-c2ccccc2)cs1 | active: -62.7%

Row | Structure (SMILES) | activity change, negative = inhibition
67 | Cc1cc(C)cc(OCC(=O)NNC(=O)c2ccccn2)c1 | active: -97.3%
68 | COc1cc(C)ccc1S(=O)(=O)n1nc(C)cc1C | inconclusive: -46.4%
69 | c1ccc(-c2oc3ncnc(NCCN4CCOCC4)c3c2-c2ccccc2)cc1 | inconclusive: -42.1%
70 | C[C@@H]1ON(C)[C@H]2C[C@H]3c4cc(-c5cccc(F)c5)ccc4CCN3C(=O)[C@@H]12 | inactive: -16.7%
71 | Cc1ccccc1C(=O)N1CCc2cc(-c3csc(NC(=O)CN4CCCC4)n3)ccc21 | active: -78.8%
72 | COc1ccc(/C=C2\SC(=O)N=C2N)cc1OC | inactive: -8.65%
73 | Cc1ccc([N+](=O)[O-])cc1-c1ccc(/C=C(\C#N)c2[nH]nc(N)c2C#N)o1 | inconclusive: -54.4%
74 | COc1ccccc1NC(=O)COc1ccc(C(=O)NCC2CCCO2)cc1OC (stereo unspecified) | inactive: 0%
75 | CCOc1ccc(NC(=S)NCCN2CCN(Cc3ccccc3)CC2)cc1 | inconclusive: -45.9%
76 | Cc1ccc(C)c(N2CCN(CCCNC(=O)CCC(=O)N3CCOc4ccc(Cl)cc43)CC2)c1 | active: -83.3%
77 | CC(=O)c1c(N2CCN(c3ccc(F)cc3)CC2)nc(=S)n(Cc2ccccc2)c1C | active: -68%
78 | CCC(CC)C(=O)Nc1ccc(C(=O)Nc2cc(C)on2)cc1 | inconclusive: -45.5%
79 | Cc1cc2cc(C)c3nnc(SCC(=O)Nc4ccc(S(=O)(=O)N5CCCCC5)cc4)n3c2cc1C | inconclusive: -53.3%
80 | OCC12COC(c3ccccc3)N1C(c1ccccc1)OC2 (stereo unspecified) | inconclusive: -40.5%
81 | CN(CC(=O)NCc1ccc2c(c1)OCO2)S(=O)(=O)c1ccc(Br)s1 | inactive: -8.43%
82 | O=C(Nc1noc2ccccc12)c1c(F)cccc1F | inactive: 165%
83 | COc1ccc(Cn2ccnc2SCC(=O)Nc2cccc(NC(C)=O)c2)cc1 | inactive: 0%
84 | Cc1ccc(CC(=O)Nc2ccncc2)cc1 | inconclusive: -54.4%
85 | N#Cc1c(N)n(-c2ccccc2)c(=O)c2cc([N+](=O)[O-])ccc12 | inconclusive: -56.8%
86 | CCCCN(C(=O)CCCc1nc2ccccc2s1)c1c(N)n(CC(C)C)c(=O)[nH]c1=O | inconclusive: -50.8%
